Drawing on PubChem BioAssay AID624405 (Broad Institute, 2012), this text covers rescue activity (ATP increase) for 72 molecules.

Screen size: about 1,900 compounds; about 250 (13%) were called active. Inconclusive results (about 4%) are left out.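 How the source made its calls: active means fitted curve reaches 40% rescue activity at or below the top valid dose, in every test run; inconclusive means test runs disagree, some active and some inactive; inactive means every run misses the threshold or moves the wrong way.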 The entries are a selection whose mix differs from that of the whole data set. Results with a measured potency or affinity are listed apart.

This test in a line: rescue of simvastatin-induced ATP loss – cell-based, C2C12 myotubes, ATP luminescence, cherry pick, dose response (AID 624405).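 Further: myotubes are challenged with simvastatin at 10 µM to lower ATP.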 To be noted: 48 h, scaled: DMSO wells 0, geranylgeraniol wells 100; at 19.5 µM (top of the series) unless noted.
Turning to `C[C@@H]1CN([C@H](C)CO)C(=O)Cc2cc(NC(=O)Cc3cn(C)c4ccccc34)ccc2O[C@@H]1CN(C)S(=O)(=O)c1ccc(F)cc1`, the rescue activity (ATP increase) is inactive: 12.3%. Regarding `C[C@@H]1CN([C@H](C)CO)C(=O)Cc2cc(NC(=O)Cc3cn(C)c4ccccc34)ccc2O[C@@H]1CN(C)Cc1ccc(Cl)c(Cl)c1`, the rescue activity (ATP increase) is inactive: 28.1%. The same measure for `CCOC(=O)c1[nH]c2ccccc2c1NC(=O)Nc1ccc(OC)cc1`: inactive: 30.7%; for `C[C@@H]1CN([C@@H](C)CO)C(=O)c2cc(NS(=O)(=O)c3cccs3)ccc2O[C@@H](C)CCCCO[C@@H]1CN(C)Cc1ccc(C(F)(F)F)cc1`: inactive: -11.2%; for `C[C@H](CO)N1C[C@H](C)[C@@H](CN(C)C(=O)CCCN(C)C)OCCCC[C@H](C)Oc2ccc(NC(=O)Nc3ccc(C(F)(F)F)cc3)cc2C1=O`: inactive: -8.45%. For the molecule `CCCCSc1nc(C)cc(SCC(=O)N/N=C/c2cccc(OC)c2O)n1`, the rescue activity (ATP increase) is inactive: 17.1%. The result for `Cc1ccc(NC(=O)CSCC(=O)Nc2ccc(N3CCOCC3)c(Cl)c2)cc1` reads inactive: -21.7%. For `CC(C)C#Cc1ccc2c(c1)O[C@@H](CN(C)C(=O)CC1CC1)[C@@H](C)CN([C@@H](C)CO)S2(=O)=O`, the rescue activity (ATP increase) is inactive: 1.35%.

In the case of `C[C@@H]1CCCCO[C@H](CN(C)C(=O)Cc2ccccc2)[C@@H](C)CN([C@@H](C)CO)C(=O)c2cc(NS(=O)(=O)c3cn(C)cn3)ccc2O1`, the rescue activity (ATP increase) was inactive: -34.5% [at 10 µM]. The result for `O=C(c1cc2cc(Cl)cc(Cl)c2oc1=O)N1CCOCC1` reads inactive: -3.36%; that for `COCCN=C1Sc2nc3c(C)cccc3cc2CN1Cc1ccco1`, inactive: -32.1%; that for `CCOC(=O)c1[nH]c2ccc(OC)cc2c1NC(=O)CCN1CCCC(C)C1` (configuration not stated), inactive: -16.5%. With `C[C@@H]1CN([C@H](C)CO)C(=O)c2cc(NC(=O)Cc3cn(C)c4ccccc34)ccc2O[C@@H]1CN(C)S(=O)(=O)c1cccs1`, the rescue activity (ATP increase) is inactive: 12%. With `C[C@H](CO)N1C[C@H](C)[C@H](CN(C)S(=O)(=O)c2ccc(Cl)cc2)Oc2c(NC(=O)C3CCCCC3)cccc2C1=O`, the rescue activity (ATP increase) was inactive: 11.8%. Regarding `COc1ccc(NC(=O)Nc2ccc3c(c2)C(=O)N([C@H](C)CO)C[C@H](C)[C@@H](CN(C)Cc2ccc(C(F)(F)F)cc2)OCCCC[C@@H](C)O3)cc1`, the rescue activity (ATP increase) is inactive: -5.5%.

As for `CC(C)(C)OC(=O)NCCCCCNC(=O)c1[nH]cnc1C(=O)N[C@@H](Cc1ccccc1)C(=O)OCc1ccccc1`, the rescue activity (ATP increase) was inactive: -35.6%. The same measure for `C[C@@H]1CCCCO[C@@H](CN(C)CC2CCCCC2)[C@@H](C)CN([C@H](C)CO)C(=O)c2cc(NC(=O)NC3CCCCC3)ccc2O1`: inactive: -16.5%. `CC(=O)O[C@@H]1[C@H]2[C@@H](C[C@@H](C)[C@@H]3C=CC(=O)[C@@]13C)OC(=O)[C@@H]2C`: the rescue activity (ATP increase) was inactive: -25.6%.

Take `O=C(c1cccc(-c2nnc(-c3ccccc3)o2)c1)N1CCCCC1`: the rescue activity (ATP increase) was inactive: 21.3%. The result for `O=C1c2ccccc2NC2(CCCCC2)N1c1ccc(O)cc1` reads inactive: 24.1%; that for `C=CCn1cc(-c2ccccc2)cc(C#N)c1=O`, inactive: 3.41%; that for `Cn1c(=O)c2c(nc(Oc3ccccc3)n2C)n(C)c1=O`, inactive: 5.18%. Take `C[C@@H]1CN([C@H](C)CO)C(=O)c2cccc(NC(=O)Nc3cccc4ccccc34)c2O[C@@H]1CN(C)C(=O)Nc1ccc(F)cc1`: the rescue activity (ATP increase) was inactive: -1.34%. The result for `Cc1ccc(-c2nnc(OCCN3CCOCC3)c3ccccc23)cc1` reads inactive: 4.83%; that for `Cc1nnc(Nc2ccc(O)cc2)[nH]c1=O`, inactive: 11%; that for `COCC(=O)N1C[C@@H]2[C@H](c3ccccc31)[C@H](CO)N2Cc1ccc(OC)cc1`, inactive: -3.02%. Regarding `CN1C[C@@H]2[C@H](c3ccccc31)[C@H](CO)N2Cc1ccccc1`, the rescue activity (ATP increase) was inactive: -1.19%. As to `C[C@H](CO)N1C[C@H](C)[C@H](CN(C)C(=O)Nc2ccc(F)cc2)OCCCC[C@H](C)Oc2ccc(NC(=O)Cc3ccccc3)cc2C1=O`, the rescue activity (ATP increase) was inactive: -7.95%. As to `COc1ccc(S(=O)(=O)Nc2ccc3c(c2)C(=O)N([C@H](C)CO)C[C@@H](C)[C@@H](CN(C)S(=O)(=O)c2ccc(F)cc2)OCCCC[C@H](C)O3)cc1`, the rescue activity (ATP increase) is inactive: 11.4%.

Consider `CC1(C)CC(NC(=O)CCC2CCCC2)CC(C)(C)N1`, for which the rescue activity (ATP increase) is inactive: 30.3%. Consider `C[C@@H]1CN([C@H](C)CO)C(=O)Cc2cc(NC(=O)c3ccncc3)ccc2O[C@@H]1CN(C)Cc1ccc(Cl)c(Cl)c1`, for which the rescue activity (ATP increase) was inactive: 22.4% [at 21 µM].

As for `CCC(CCC(=O)Nc1ccn(-c2ccccc2)n1)C(=O)O` (configuration not stated), the rescue activity (ATP increase) was inactive: -4.18%. With `O=C(Cc1coc(-c2ccc(F)cc2)n1)Nc1ccccc1`, the rescue activity (ATP increase) is inactive: -14.8%. `N#CC(=C1Nc2ccccc2N1)S(=O)(=O)c1ccccc1`: the rescue activity (ATP increase) is inactive: 7.84%. With `CCOC(=O)CN(C(=O)CNC(=O)c1ccco1)C(C(=O)NC1CCCCC1)c1cccs1` (configuration not stated), the rescue activity (ATP increase) was inactive: 8.81%. `O=C(C[C@@H]1CC[C@H]2[C@@H](COC[C@@H](O)CN2Cc2cccc(Cl)c2)O1)NCC1CCCCC1`: the rescue activity (ATP increase) is inactive: 20.6%. In the case of `C[C@H](CO)N1C[C@H](C)[C@H](CN(C)S(=O)(=O)c2ccc(F)cc2)OCCCC[C@H](C)Oc2ccc(NS(C)(=O)=O)cc2C1=O`, the rescue activity (ATP increase) is inactive: -3.22%. For the molecule `COc1ccc(S(=O)(=O)Nc2ccc3c(c2)C(=O)N([C@@H](C)CO)C[C@H](C)[C@H](CN(C)Cc2ccc(C(F)(F)F)cc2)O3)cc1`, the rescue activity (ATP increase) was inactive: 26.2%. Regarding `CCCNC(=O)c1c(N)n(-c2cccc(OC)c2)c2nc3ccccc3nc12`, the rescue activity (ATP increase) is inactive: -12.4%. On to `O=C(Nc1ccccc1)[C@@H]1[C@@H](CO)[C@@H]2Cn3c(ccc(C4=CCCCC4)c3=O)[C@@H]2N1Cc1cocn1`, for which the rescue activity (ATP increase) was inactive: -1.49%. As for `CCCNC(=O)N(C)C[C@@H]1Oc2cc(C3=CCCCC3)ccc2S(=O)(=O)N([C@@H](C)CO)C[C@@H]1C`, the rescue activity (ATP increase) is inactive: 6.48%.

For `CCOc1ccc(OCCOCCOc2c(Cl)cccc2Cl)cc1`, the rescue activity (ATP increase) is inactive: 12.4%. As for `Cc1ccc(N(C(=O)Cn2nnc3ccccc32)C(C(=O)NCc2ccco2)c2ccc(C)o2)cc1` (configuration not stated), the rescue activity (ATP increase) was inactive: 65.9%.

As to `CCOc1cc(NC(=O)C2CC2)c(OCC)cc1NC(=O)c1ccccn1`, the rescue activity (ATP increase) was inactive: 10.8%.

Turning to `COc1ccc(-c2ccc3c(c2)[C@@H]2[C@@H](CCN2C(=O)c2ccc4c(c2)OCO4)[C@@H](CO)N3)cc1`, the rescue activity (ATP increase) was inactive: 6.33%. With `COc1ccc(NC(=O)N(C)C[C@@H]2Oc3ccc(NC(=O)Cn4cnnn4)cc3C(=O)N([C@H](C)CO)C[C@H]2C)cc1`, the rescue activity (ATP increase) is inactive: 0.051% [at 21 µM].

For the molecule `Cc1cc(NC(=O)CCC(=O)N(CCC(C)C)C(C(=O)NC2CCCC2)c2cccnc2)no1` (configuration not stated), the rescue activity (ATP increase) was inactive: -14.7%. With `CC(=O)C[C@@H](O)CC(=O)[C@@H]1OC(=O)CCCCCCCCc2ccccc21`, the rescue activity (ATP increase) was inactive: 35.6%. For the molecule `C[C@@H]1CN([C@H](C)CO)C(=O)c2cc(C3=CCCCC3)cnc2O[C@H]1CN(C)C(=O)Nc1cccc(F)c1`, the rescue activity (ATP increase) is inactive: 27.1%.

On to `COc1ccc(OC)c(CNC(=O)C2CCCN(c3nc4ccccc4o3)C2)c1` (configuration not stated), for which the rescue activity (ATP increase) is inactive: 16.2%. Consider `Cc1noc(C)c1NC(=O)Nc1ccc2c(c1)CC(=O)N([C@H](C)CO)C[C@H](C)[C@@H](CN(C)Cc1ccc(Oc3ccccc3)cc1)O2`, for which the rescue activity (ATP increase) was inactive: -27.8%. In the case of `Cc1cccn2c(=O)c3cc(C(=O)NCCC4=CCCCC4)n(C)c3nc12`, the rescue activity (ATP increase) was inactive: -167%.

Consider `COc1ccc2oc(=O)c(-c3nnc(NCc4ccco4)s3)cc2c1`, for which the rescue activity (ATP increase) is inactive: -9.04%. As to `C[C@H](CO)N1C[C@H](C)[C@@H](CN(C)Cc2ccc(-c3ccccc3)cc2)Oc2ccc(NC(=O)CCCCCC(=O)Nc3ccccc3N)cc2CC1=O`, the rescue activity (ATP increase) was inactive: 32%. On to `Oc1ccc(-c2onc3ccc(Cl)cc23)cc1`, for which the rescue activity (ATP increase) is inactive: -4.02%. In the case of `O=C(C/C=N/OCc1c(Cl)cccc1Cl)c1cnc(-c2ccccc2)s1`, the rescue activity (ATP increase) was inactive: -1.61%. As for `CCOC(=O)C(C)n1nc(/C=C/c2ccccc2)ccc1=O` (configuration not stated), the rescue activity (ATP increase) is inactive: -17.3%. Regarding `CCOC(=O)N1CCC(NC(=O)c2cc(C)c3c(C)nn(-c4ccccc4)c3n2)CC1`, the rescue activity (ATP increase) is inactive: -1.19%. Consider `COc1ccc(Cl)cc1C(=O)n1nc(C)cc1C`, for which the rescue activity (ATP increase) was inactive: 0.34%. On to `COc1ccc(OC)c(S(=O)(=O)NCc2cccnc2)c1`, for which the rescue activity (ATP increase) was inactive: -14.8%. The result for `C[C@@H]1CCCCO[C@H](CN(C)Cc2ccc(C(F)(F)F)cc2)[C@H](C)CN([C@H](C)CO)C(=O)c2cc(NC(=O)Cc3ccccc3)ccc2O1` reads inactive: 7.72%; that for `CCOc1ccc(N(CC(=O)NCc2ccco2)S(=O)(=O)c2ccc(OC)c(OC)c2)cc1`, inactive: 11.6%; that for `CC(=O)Nc1ccc(C(=O)CSc2nc3ccc(C)cc3[nH]2)cc1`, inactive: -22.6%. The result for `Cc1cccn2cc(CNc3ccccc3)nc12` reads inactive: 9.4%; that for `c1cc(-c2noc(CC3CCCCC3)n2)ccn1`, inactive: 15.6%. Consider `C[C@H]1CN([C@@H](C)CO)C(=O)c2cccc(NC(=O)Nc3cccc4ccccc34)c2O[C@H]1CN(C)Cc1ccc(Cl)c(Cl)c1`, for which the rescue activity (ATP increase) is inactive: 28.7%.

As for `C[C@@H]1CN([C@@H](C)CO)C(=O)c2cccc(NC(=O)c3nc4ccccc4s3)c2O[C@H]1CN(C)Cc1ccc(C(=O)Nc2ccccc2N)cc1`, the rescue activity (ATP increase) is inactive: 14.9%.

As for `CS(=O)(=O)N(CC(=O)NCc1ccco1)c1ccc(OCc2ccccc2)cc1`, the rescue activity (ATP increase) is inactive: 23.1%. Consider `COc1ccc(C(=O)NC(C(=O)NCc2ccccn2)C(C)C)cc1` (configuration not stated), for which the rescue activity (ATP increase) was inactive: 36.3%. As for `O=C(c1ccc(F)cc1)N1CCC(N2CCCCCC2)CC1`, the rescue activity (ATP increase) was inactive: -15.7%.

On to `O=C(COc1cc(=O)n2c(n1)SCCC2)c1ccccc1`, for which the rescue activity (ATP increase) is inactive: 36.7%. Consider `C[C@H](CO)N1C[C@H](C)[C@@H](CN(C)Cc2ccc3c(c2)OCO3)Oc2ccc(NS(=O)(=O)c3ccc(F)cc3)cc2CC1=O`, for which the rescue activity (ATP increase) was inactive: 27.9%.
